Measurements reported in PubChem BioAssay AID686943 (Drosophila RNAi Screening Center, 2013).

- Test: 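Knockdowns that increase or decrease active ERK after insulin receptor stimulation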 (primary screen)
- Cells: Drosophila S2R+ haemocyte-like cells expressing YFP-tagged ERK (Rolled)
- Reagents: long dsRNA against Drosophila genes
- Conditions: insulin stimulation versus unstimulated cells; dose and duration not given
- Measurement: 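Per-plate z-scores of phospho-ERK immunostaining normalised to YFP-tagged ERK, measured with and without insulin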
- Direction: replicate 1, z-score of dpERK with insulin and replicate 2, z-score of dpERK with insulin: higher = more active ERK per ERK-YFP after insulin
In all, the deposit lists about 23,000 reagents; this is an unselected part of those that have a named target and a result. 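Extra replicates exist only for a retested subset of genes; insulin dose and duration not given; both raised and lowered dpERK matter.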 A plus sign joins genes that one reagent is predicted to hit. Further read-outs or replicates are left out here. Not stated in the record: the amount of reagent, the time to read-out.

CG15005 [DRSC08459] — replicate 1, z-score of dpERK with insulin = 0.85; replicate 2, z-score of dpERK with insulin = 0.41
Sap-r (Saposin-related) [DRSC16849] — replicate 1, z-score of dpERK with insulin = 0.39; replicate 2, z-score of dpERK with insulin = 0.69
Sap-r (Saposin-related) [DRSC21916] — replicate 1, z-score of dpERK with insulin = -0.06; replicate 2, z-score of dpERK with insulin = 0.37
CG31835 + CG42585 [DRSC01412] — replicate 1, z-score of dpERK with insulin = -0.82; replicate 2, z-score of dpERK with insulin = -0.84
CG1428 [DRSC03708] — replicate 1, z-score of dpERK with insulin = -0.33; replicate 2, z-score of dpERK with insulin = 0.64
CG9674 [DRSC11088] — replicate 1, z-score of dpERK with insulin = 0.34; replicate 2, z-score of dpERK with insulin = -0.29
CG9674 [DRSC11089] — replicate 1, z-score of dpERK with insulin = 0.53; replicate 2, z-score of dpERK with insulin = 1.47
Jra (Jun-related antigen) [DRSC07447] — replicate 1, z-score of dpERK with insulin = 2.46; replicate 2, z-score of dpERK with insulin = 1.52
CG1213 [DRSC12191] — replicate 1, z-score of dpERK with insulin = -0.01; replicate 2, z-score of dpERK with insulin = -0.45
CG34331 [DRSC20679] — replicate 1, z-score of dpERK with insulin = 0.62; replicate 2, z-score of dpERK with insulin = 0.79
fw (furrowed) [DRSC20334] — replicate 1, z-score of dpERK with insulin = 0.86; replicate 2, z-score of dpERK with insulin = 0.3
gzl (godzilla E3 ubiquitin protein ligase) [DRSC12517] — replicate 1, z-score of dpERK with insulin = 0.53; replicate 2, z-score of dpERK with insulin = 0.04
Rab18 [DRSC18702] — replicate 1, z-score of dpERK with insulin = -0.51; replicate 2, z-score of dpERK with insulin = -0.62
CG17266 [DRSC04979] — replicate 1, z-score of dpERK with insulin = 2.23; replicate 2, z-score of dpERK with insulin = -0.46
CG17266 [DRSC22368] — replicate 1, z-score of dpERK with insulin = 0.62; replicate 2, z-score of dpERK with insulin = -0.54

2 entries from above, reformatted.
target gene,amplicon,"replicate 1, z-score of dpERK with insulin","replicate 2, z-score of dpERK with insulin"
CG31835 + CG42585,DRSC01412,-0.82,-0.84
CG1428,DRSC03708,-0.33,0.64

Additional results:
Ranbp16 [DRSC20160] — replicate 1, z-score of dpERK with insulin = -1.21; replicate 2, z-score of dpERK with insulin = -0.11
CG34160 [DRSC01131] — replicate 1, z-score of dpERK with insulin = 1.1; replicate 2, z-score of dpERK with insulin = 0.36
Or67b (Odorant receptor 67b) [DRSC11241] — replicate 1, z-score of dpERK with insulin = 0.15; replicate 2, z-score of dpERK with insulin = -0.1
CG6293 [DRSC16011] — replicate 1, z-score of dpERK with insulin = 0.46; replicate 2, z-score of dpERK with insulin = 0.25
rumi [DRSC15177] — replicate 1, z-score of dpERK with insulin = -1.29; replicate 2, z-score of dpERK with insulin = -0.86
Cdk1 (Cyclin-dependent kinase 1) [DRSC03504] — replicate 1, z-score of dpERK with insulin = -2.74; replicate 2, z-score of dpERK with insulin = -2.38
SREBP (Sterol regulatory element binding protein) [DRSC11182] — replicate 1, z-score of dpERK with insulin = -0.13; replicate 2, z-score of dpERK with insulin = 0.86
Cth (Cystathionine gamma-lyase) [DRSC07422] — replicate 1, z-score of dpERK with insulin = 0.91; replicate 2, z-score of dpERK with insulin = 0.11
cg (combgap) [DRSC07650] — replicate 1, z-score of dpERK with insulin = -5.99; replicate 2, z-score of dpERK with insulin = -4.05
Hira [DRSC18672] — replicate 1, z-score of dpERK with insulin = 0.26; replicate 2, z-score of dpERK with insulin = 0
CG13895 [DRSC08365] — replicate 1, z-score of dpERK with insulin = 0.03; replicate 2, z-score of dpERK with insulin = 0.41
CG11113 [DRSC06039] — replicate 1, z-score of dpERK with insulin = 0.42; replicate 2, z-score of dpERK with insulin = 0.3
CG5071 [DRSC15710] — replicate 1, z-score of dpERK with insulin = 1.11; replicate 2, z-score of dpERK with insulin = 0.14
CG5071 [DRSC22570] — replicate 1, z-score of dpERK with insulin = -0.05; replicate 2, z-score of dpERK with insulin = 0.31
CG15531 [DRSC15068] — replicate 1, z-score of dpERK with insulin = -0.51; replicate 2, z-score of dpERK with insulin = 0
betaNACtes1 (Nascent-associated complex beta-subunit-like, testis 1) [DRSC19534] — replicate 1, z-score of dpERK with insulin = 1.6; replicate 2, z-score of dpERK with insulin = 0.65
